These are yes or no findings as the source states them, for the method shown. Some results given as binding are weak or reduced against the parent protein; the word gives no strength.

Sequences of proteins named here, by UniProt entry; tags and fusion partners are left off. A change or cut given only in a name is not applied to a line headed by its entry.
UniProt O88671: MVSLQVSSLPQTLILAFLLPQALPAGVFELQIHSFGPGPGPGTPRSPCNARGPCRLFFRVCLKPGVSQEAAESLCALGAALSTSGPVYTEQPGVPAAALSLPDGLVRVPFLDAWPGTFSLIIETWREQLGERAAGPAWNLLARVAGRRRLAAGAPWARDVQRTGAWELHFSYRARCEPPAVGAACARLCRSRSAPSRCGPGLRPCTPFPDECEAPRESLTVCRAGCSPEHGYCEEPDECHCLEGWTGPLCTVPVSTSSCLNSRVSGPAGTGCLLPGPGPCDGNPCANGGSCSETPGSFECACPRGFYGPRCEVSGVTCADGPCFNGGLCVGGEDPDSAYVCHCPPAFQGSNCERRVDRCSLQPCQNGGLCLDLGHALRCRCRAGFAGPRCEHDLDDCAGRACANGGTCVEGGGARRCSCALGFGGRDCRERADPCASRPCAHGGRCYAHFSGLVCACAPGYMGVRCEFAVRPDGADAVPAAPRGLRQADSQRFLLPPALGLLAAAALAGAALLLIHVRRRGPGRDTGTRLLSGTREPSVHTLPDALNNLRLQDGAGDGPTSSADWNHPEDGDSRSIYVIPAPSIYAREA

For assay [1], the target named is Rat DLL3 full-length protein on CHO-s cells (rat) (UniProt O88671). Nature of the assay: FACS on RatDLL3/CHO-s cells.
For assay [2], the target named is T1, mouse DLL3 (KACTUS, DLL-MM103) (mouse, UniProt O88516 33-490, limits assumed).
T1 construct: bought antigen of the Biacore assay; construct not described
T1 sequence (looked up): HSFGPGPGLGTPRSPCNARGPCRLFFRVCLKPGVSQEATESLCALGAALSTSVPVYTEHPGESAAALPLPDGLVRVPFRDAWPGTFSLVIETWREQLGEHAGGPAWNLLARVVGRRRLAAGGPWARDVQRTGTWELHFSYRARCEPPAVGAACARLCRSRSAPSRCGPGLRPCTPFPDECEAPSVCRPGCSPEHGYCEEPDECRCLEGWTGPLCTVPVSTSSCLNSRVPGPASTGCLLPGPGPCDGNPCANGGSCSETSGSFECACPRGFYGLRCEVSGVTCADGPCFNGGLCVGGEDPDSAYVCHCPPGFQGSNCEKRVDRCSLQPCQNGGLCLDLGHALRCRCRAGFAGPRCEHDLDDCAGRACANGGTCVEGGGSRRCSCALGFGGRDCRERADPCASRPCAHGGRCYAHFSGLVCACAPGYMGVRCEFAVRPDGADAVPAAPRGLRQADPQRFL
In words: SPR (Biacore 8K). In general terms: SPR reads the build-up and loss of mass on a sensor chip optically.

B1: Hu6 (antibody, human IgG1, kappa, V domains shown)
VH: EVQLVQSGSELKKPGASVKVSCKASGYTFTDYYMNWVRQAPGQGLEWMGIINPYSGVTIYNHKFKGRFALSVDKSSNTAYLQISSLKAEDTAVYYCARQDSLLDYAMDYWGQGTTVTVSS
VL: DIQMTQSPSSLSASVGDRVTITCHASQGISGNMGWLQQKPGKAPKGLIYHGANLEDGVPSRFSGSGSGADYTLTISSLQPEDFADYYCVQYAQFPYTFGGGTKVEIKR
notes: also called hAb6L4H12
Turning to B1, the binding result in assay [1] and in assay [2] was “binds” in each case.

These data come from patent US20250057968A1, “ANTI-DLL3 ANTIBODY AND PHARMACEUTICAL USE THEREOF, AND ANTIBODY-DRUG CONJUGATE CONTAINING ANTI-DLL3 ANTIBODY” (Jiangsu Hengrui Pharmaceuticals Co., Ltd., priority 2021, published 2025).
